Laboratory results from the supplement of paper PMC3334620.
Over roughly 33,000 sequences, “E-score (-0.5 to 0.5)” has its median near -0.0014; the highest 2% begin near 0.25. The list shows a part of the results.

molecular target: T1, Cad1 (UniProt P24813); test: PBM E-score (8-mer binding enrichment) (E-score (-0.5 to 0.5)); higher = stronger / more preferred TF binding; settings: protein concentration: 100 nM; construct: GST-full length
T1 sequence: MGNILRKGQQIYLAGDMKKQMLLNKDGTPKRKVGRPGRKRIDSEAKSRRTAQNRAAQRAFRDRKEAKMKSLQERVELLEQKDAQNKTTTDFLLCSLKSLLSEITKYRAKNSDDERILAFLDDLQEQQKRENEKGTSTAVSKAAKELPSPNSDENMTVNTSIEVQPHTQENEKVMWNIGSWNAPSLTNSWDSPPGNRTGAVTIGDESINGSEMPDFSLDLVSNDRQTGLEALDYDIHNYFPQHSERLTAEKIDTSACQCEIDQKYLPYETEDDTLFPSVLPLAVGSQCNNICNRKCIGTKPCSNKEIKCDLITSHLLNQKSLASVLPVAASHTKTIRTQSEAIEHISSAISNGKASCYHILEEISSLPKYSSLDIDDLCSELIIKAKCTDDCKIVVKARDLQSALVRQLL
Procedure, shortened: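 The E-score, a modified Wilcoxon-Mann-Whitney statistic, was computed by the Universal PBM Analysis Suite for every ungapped eight-base word pooled with its reverse complement. Scans behind it were normalised with masliner after bound GST-tagged yeast transcription factors were detected with fluorescent anti-GST. The proteins, at about 100-200 nM, had been applied to universal all-10-mer Agilent arrays made double-stranded by primer extension.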

Sequence	PBM E-score
CACTAACA	0.0686
ATCGTCAT	0.12
CGGGGCAA	-0.0608
CCCGTACG	-0.119
CCTGCCTC	-0.181
ACGACTGG	-0.109
CCTTCAAC	-0.0081
AAACTAAC	0.0901
ATTAGTCC	0.153
AAGACACC	-0.109
AGACAACA	0.0247
TCTCTCAA	0.177
ACAAATAT	0.262
GGAGCGTA	0.0102
ACTCGTTA	-0.0384
AGGTTTGA	-0.116
AAGAGGAA	0.0448
ACATATTA	0.317
CTGGTAAG	0.0865
TCAGCGCA	0.0125
GATGCGCA	0.153
GGCGGTAC	-0.0694
ATGTGTGG	0.0124
CGAATTCC	0.111
AGTCCCAC	-0.0814

Sequence	PBM E-score
AAAGCTTA	0.201
GAGCATAC	-0.0838
ACAACCAA	0.115
CGAAATAA	0.214
GCAACAAC	0.12
TCACTTCA	-0.0607
ATGCAATA	0.0766
AATAAAAT	0.166
ATCTCCAC	-0.0913
GCCTGGCA	-0.171
GGTGTAGA	-0.0326
AGCACCGG	-0.123
AGCATCCT	-0.152
AGACATCT	-0.136
GATTCCCA	-0.0478
AAGCGTTC	-0.0171
GGAAGTAC	-0.0293
CTATCCTC	-0.17
ATATCGGC	0.0995
TACCAGTA	0.0117
GTCCCGAC	-0.0157
ACCGACGA	-0.152
GTGCTGAA	0.0959
GGGTGGAA	-0.16
GGTCGTAC	-0.102

Sequence	PBM E-score
GAAGACTC	0.00854
TATTAAAA	0.194
CATTAGGA	0.0351
CCCTTCCG	-0.262
ATATATCC	0.297
AGGTAGAT	-0.069
ACCGCGGT	0.236
ATTACAGC	-0.121
AACGCGAT	0.0132
ATTAGAAT	0.21
CGCCAGAG	-0.0973
CTGCAAAA	0.00476
ACGCATTG	-0.0523
GATCGTAA	-0.052
AAAAGATG	0.156
CAGAACCA	-0.145
CCGAGATC	0.0304
AAAACCTT	-0.164
GACAAGAA	0.0396
CCCAACTC	0.0363
CAAGGTTC	-0.166
GACGTCGC	-0.0716
CATGGGCC	-0.172
GGTCCAAC	-0.249
AATCGCGG	0.0411

Sequence	PBM E-score
CGTCAGGA	0.127
GACTGAAC	-0.109
GATGTACA	0.171
ACCTGGTG	-0.215
AAAGGAGT	-0.0982
AGATGTAT	0.0847
ACAGAATC	0.0246
CACCTGCC	-0.0155
ACTGCGAC	0.105
TATATTAA	0.326
ACACGTGA	0.026
TAACTCGA	0.275
CAGTAGCG	0.019
AACTTGTC	0.0539
CTAGGTAA	0.0317
ACCGCTAG	-0.2
AAACGAGG	-0.146
ACAGCTCT	-0.346
ACTAGAGT	-0.123
AATCTGCG	0.00478
AACAGTAA	0.0812
AAAAAGTA	-0.00035
CCCTTTAC	-0.0419
ACTGTTAA	0.0465
CTCTAGAG	-0.0455

Pulled one by one from the list above, 5 records:
Sequence	PBM E-score
AAAAAGTA	-0.00035
CGTCAGGA	0.127
AACAGTAA	0.0812
AAACGAGG	-0.146
CTAGGTAA	0.0317

Further results follow.

Sequence	PBM E-score
GTCTGTCA	0.118
CCCTCTGA	-0.205
AGGAAAAG	-0.00624
CATCGTCA	0.135
GTGGGCCA	0.118
GTTCAGCA	0.0509
ACGCCCGC	-0.0739
AACTTTCG	0.0133
CAACGATG	-0.0351
GATGACAC	0.0339
AATGGATA	-0.0508
ATCGAGGC	0.0987
CTTATGAC	0.092
GAATTCGA	0.123
CGTTATTC	0.15
AGCATGTA	-0.059
GCTGAGAA	0.0017
ACTTTTCC	0.0268
GGTATACC	0.197
CACCGAGC	0.114
AGTGTTCC	0.0953
GGGGACCA	-0.199
CCATGCAC	-0.064
TATGAGCA	-0.0237
ATAGAGAG	-0.301

Sequence	PBM E-score
TGTTGCAA	0.228
CCTCACCG	-0.335
CCCCCGAC	-0.279
ACCGAGGT	-0.133
CGAATAAC	-0.0156
GTGTTCAA	0.00707
GAGCCAGC	-0.243
ACTTTAAA	0.0246
AGACGTGG	-0.0369
AGTGCTCA	-0.103
AAAGCGGC	0.174
CTCTCTTA	-0.117
CGAAGTTA	0.0875
AAGTCCTC	-0.0441
CAAGCTCA	-0.0161
AGCGGTGG	-0.2
CGATTATA	0.184
AATCCTGT	0.097
ACGAAAGA	0.0722
CATGTTTC	0.197
CTCGTAAA	0.0173
TGATTGAA	0.115
ATTTATCA	0.239
AGGCCCGA	-0.0508
CGCCCTAG	-0.103

Sequence	PBM E-score
CACGTGGA	0.154
AACTGTCC	0.00027
ATGACGCG	0.142
CTCACTTA	0.0639
AGACCGTA	-0.267
TTGAACAA	0.0402
AAAGTGTA	0.181
TCGCTTAA	0.149
ACTAGATC	-0.0134
ATGCGTGG	-0.183
ACCTAACG	-0.133
ATCTAAGG	0.0177
ATCCGTGA	0.129
GACCTCGA	0.0881
CCCGGCAG	-0.0576
CAAGGATC	0.057
CAGTGACA	0.0358
ATATAAAT	0.195
AACCCAAA	0.0249
ACTAGCTG	-0.0129
CAAGCCCC	-0.256
GAGCGGCA	-0.0597
CCCGCGAC	-0.0213
AGTTAGCG	0.156
GTAACAGA	0.201

Sequence	PBM E-score
CGTTACAA	0.16
CACTTAGA	0.171
GGACTCAA	-0.0941
ATAACGAG	-0.0492
GGAACGCA	-0.0134
AACATTAG	0.0321
TACAAAAA	0.111
CAGACGGC	-0.0553
GCACAGGC	0.0211
GACGTTGA	0.08
CGGGCCGC	-0.117
AGCAGGCG	-0.0168
ATTACCAG	0.0906
ACATCTCA	0.0823
TTCTAGAA	0.0653
ACAACTGG	0.0106
ACGGGTCC	-0.22
ACCGCGCG	0.225
TATCCTGA	0.23
ATAAGACG	-0.0148
GATATCCA	0.145
ATCAAAAA	0.149
CGTGACTC	-0.27
CCCTCCAC	-0.096
CAGCAGGG	-0.205

Sequence	PBM E-score
CGTCACAC	-0.00722
CGTCCACG	0.0657
CAAGTAGC	-0.0227
ATAATTCG	0.168
GATCAATA	0.135
CTAACTGA	0.0613
CGGGCTAC	-0.0235
AGCTTTTA	0.00175
ACGCGAAC	-0.0346
ACCATGGA	-0.23
CGTGTCTA	0.00846
GCGTGGAC	0.0613
GCGACGCA	0.0508
TGTACTAA	0.0856
AAGAAGAG	-0.0661
CTCTGGGA	-0.252
AGTCCACC	-0.0457
AGTGGGCA	-0.114
CGAGATAC	0.183
GTGGTCAA	-0.00284
GAAATACA	0.0609
ACGCATGA	0.0155
CCCCGACA	-0.154
AATTCCGT	0.199
TGAGCACA	0.065

Sequence	PBM E-score
CAATTCAC	0.121
CCTCACGC	0.236
ACGTACCT	-0.253
TGCCGCAA	0.106
CTCACCAG	-0.127
ACCAAGTC	0.0324
CGGTGCAA	-0.0654
AGGAACAT	0.15
TATGAGAA	0.18
CTCAGCTA	-0.171
AGAAACTA	-0.145
ATCGTGGC	0.0523
TGCAAAAA	0.0686
GGGGATTA	-0.2
ATTTCTCG	0.332
CCGGTTGA	0.0248
ACGAGCGG	-0.0938
GTACGGAC	0.105
GGCTGCCC	-0.12
GAATTACC	0.111
GGCTGATA	-0.0873
AGGAGCGC	-0.15
AAATGGAT	0.00142
ACAGGGGG	-0.402
ATCCCGGA	0.0915

Taken from above:
Entry of ATCGTGGC under PBM E-score: 0.0523
Entry of ACGTACCT under PBM E-score: -0.253
Entry of CCGGTTGA under PBM E-score: 0.0248
Entry of CTCAGCTA under PBM E-score: -0.171
Entry of CCTCACGC under PBM E-score: 0.236

Further entries.

Sequence	PBM E-score
CAACCAGC	-0.0251
GCGCCAGC	-0.0972
CGAGTATC	-0.101
AGGGCCGC	-0.0441
AACCAGGT	-0.1
ACTTTCGC	0.0833
AACCGCGC	0.14
GAAGTTCA	0.102
AGGTGGAG	-0.233
CGATGCGA	-0.0258
CTAGCTAG	0.279
GAAACAAA	0.0782
AAAGAAAG	0.037
GCTAGTCC	-0.145
AGCGACCT	-0.237
AATTCTCA	0.0911
AGACGACC	-0.018
AGCTCTGA	-0.0348
AATAGCAT	0.0799
CGGATGGA	0.0381
AATGATCT	0.0536
GCCTTATA	-0.0929
AGGATTAT	-0.0734
CCAAAAGC	-0.11
CAGGCATC	-0.0766

Sequence	PBM E-score
AGCATACC	-0.112
ACAGTACC	-0.0272
ACAACTCG	-0.0242
ATCGAACC	0.138
CGTTTCAG	0.148
AGCATGAG	-0.0992
CATTTACC	-0.0436
ACGTACCC	0.0226
CACAGTCA	-0.0235
AATATGTG	0.251
TCAGCGGA	0.232
GTGTGGGA	-0.0443
CATTCATC	0.012
CGAAAACG	0.0757
CGTCAAAG	-0.0613
CCTTATAA	0.0849
ATTTCTGG	0.0461
ATCTCGAA	0.215
GGAGGATA	-0.13
CTGTGAGC	0.037
AATGAGGT	0.0401
CGTCATCA	0.0901
CCCTACAC	-0.0384
TACACGTA	-0.00969
CTAGTCTC	-0.302

Sequence	PBM E-score
ATAATAGC	0.147
CAACGCAC	-0.0247
GCTCCAAA	-0.0403
ATCTCCGG	0.117
ATCCTATG	-0.0362
AACGAGCA	-0.0102
AATCATGG	0.048
ATTTAAGG	-0.0875
TGAGGGAA	-0.187
AACGTCTC	-0.0496
CTACGCTA	-0.187
AATAGTCA	-0.00784
AGCAGGCC	-0.0635
CCCCGGTA	-0.261
CACCCCCC	-0.375
ATATCCGA	0.219
AGTATCCG	0.0117
ACGGAGTC	-0.0617
AAAACAGC	0.0718
GTCCGATA	-0.229
CACGGACC	0.0902
AACCCTAG	-0.0792
TGTCGCAA	-0.137
GAATGAGC	-0.0319
GAGCTGGC	-0.181

Taken from above for reference:
Sequence	PBM E-score
CCTGCCTC	-0.181
ACGACTGG	-0.109
CCTTCAAC	-0.0081
AAACTAAC	0.0901
ATTAGTCC	0.153

Next results.

Sequence	PBM E-score
GAGGACGC	-0.0161
CCGTAGTC	-0.0421
CGTCCAGC	-0.0486
GCATGAGC	-0.0683
ACACAGGA	-0.178
ATTGTGGC	0.0173
AAACCTCA	0.196
AAACGACC	0.101
ACTTGTGG	-0.0436
CACTTAGC	-0.0539
CCTGTTCA	-0.118
AAATTTTC	0.0644
CATGACTA	0.0268
AATTAATG	0.242
ACCTATCC	0.081
AAGGATCG	-0.0624
CCCACAAG	-0.0242
CAAGGAGC	-0.0849
CCGTGTCA	-0.0894
